These are yes or no findings as the source states them, for the method shown. Some results given as binding are weak or reduced against the parent protein; the word gives no strength. Sequences can lack the tags named with a protein.
Columns and labels:
[1] = target: GAL4^AD-IN(1-210) hybrid protein (GAL4 activation domain fused to HIV integrase amino acids 1-210) (HIV); test: yeast two-hybrid, description of plasmid TSB400/pBal26
[2] = target: GAL4^AD-IN(1-210) hybrid protein (GAL4 activation domain fused to HIV integrase amino acids 1-210) (HIV); test: yeast two-hybrid, description of plasmid TSB413

B1: GAL4^BD-PR^LBD-INF5 hybrid protein (GAL4 DNA binding domain fused to the progesterone receptor ligand binding domain and the HIV integrase inhibitory peptide … (other)
chain: MKLLSSIEQACDICRLKKLKCSKEKPKCAKCLKNNWECRYSPKTKRSPLTRAHLTEVESRLERLEQLFLLIFPREDLDMILKMDSLQDIKALLTGLFVQDNVNKDAVTDRLASVETDMPLTLRQHRISATSSSEESSNKGQRQLTVSPVLQYPALTMIQLIPPLINLLMSIEPDVIYAGHDNTKPDTSSSLLTSLNQLGERQLLSVVKWSKSLPGFRNLHIDDQITLIQYSWMSLMVFGLGWRSYKHVSGQMLYFAPDLILNEQRMKESSFYSLCLTMWQIPQEFVKLQVSQEEFLCMKVLLLLNTIPLEGLRSQTQFEEMRSSYIRELIKAIGLRQKGVVSSSQRFYQLTKLLDNLHDLVKQLHLYCLNTFIQSRALSVEFPEMMSEVIAAQLPKILAGMVKPLLFHKALYETILILLFLDVDT
notes: also called GAL4^BD-PR^LBD-IN5
binding [1]: binds | binding [2]: binds
